Data as given in PubChem BioAssay AID1259254 (NCATS, 2017)

Test: 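Genome-wide screen for genes that prevent DNA re-replication in cancer cells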 (primary screen)
Cells: human HCT116 colorectal cancer cells
Knock-down reagent: single siRNA against human genes
Timing: 3 days
Measured: 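Imaged Hoechst DNA stain sorts each cell into a cycle phase by DNA amount; per plate, G2 fraction set to 0% for non-targeting and 100% for GMNN siRNA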
Scale: G2 robust z-score and G2 cells, % of GMNN control: higher = more G2 cells, more excess DNA replication; raw share of cells in G2: higher = larger share of cells with G2 DNA content
Active means: 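An siRNA counts as active if its G2 robust z-score lies at least 5 MADs above the screen median; here such calls match roughly 38% of GMNN control or more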
The deposit covers about 59,000 reagents; this is an unselected part. Over the whole deposit, about 1,550 (2.6%) got an active call. 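G2 share is only a proxy for re-replication; each gene was hit by three separate siRNAs, and active genes were retested.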 Raw values are not corrected between plates. Unmarked entries are inactive. The numbers tell different reagents against one gene apart. The record does not give: the amount of reagent.

The first 3 entries, ahead of the listing:
gene knocked down | reagent no. | G2 robust z-score | G2 cells, % of GMNN control | raw share of cells in G2 (%)
AKR1A1 (aldo-keto reductase family 1 member A1) | 1 | 0.00895 | 3.03 | 4.82
AKR1A1 (aldo-keto reductase family 1 member A1) | 2 | 7.39 (active) | 55 | 28.1
AKR1A1 (aldo-keto reductase family 1 member A1) | 3 | 2.72 | 22.1 | 15.3

Main list, from the start:
gene knocked down | reagent no. | G2 robust z-score | G2 cells, % of GMNN control | raw share of cells in G2 (%)
AKR1A1 (aldo-keto reductase family 1 member A1) | 1 | 0.00895 | 3.03 | 4.82
AKR1A1 (aldo-keto reductase family 1 member A1) | 2 | 7.39 (active) | 55 | 28.1
AKR1A1 (aldo-keto reductase family 1 member A1) | 3 | 2.72 | 22.1 | 15.3
S100B (S100 calcium binding protein B) | 1 | 0.323 | 5.24 | 5.54
S100B (S100 calcium binding protein B) | 2 | 0.477 | 6.32 | 7.81
S100B (S100 calcium binding protein B) | 3 | 0.138 | 3.94 | 4.54
ADAMTS7 (ADAM metallopeptidase with thrombospondin type 1 motif 7) | 1 | -0.0848 | 2.37 | 6.39
ADAMTS7 (ADAM metallopeptidase with thrombospondin type 1 motif 7) | 2 | 4.75 | 36.4 | 17.8
ADAMTS7 (ADAM metallopeptidase with thrombospondin type 1 motif 7) | 3 | -0.263 | 1.11 | 4.33
KRT72 (keratin 72) | 1 | 0.318 | 5.2 | 4.88
KRT72 (keratin 72) | 2 | 1.29 | 12.1 | 7.88
KRT72 (keratin 72) | 3 | -0.45 | -0.199 | 2.85
NOX4 (NADPH oxidase 4) | 1 | -1.05 | -4.42 | 2.11
NOX4 (NADPH oxidase 4) | 2 | 12.9 (active) | 93.7 | 48.4
NOX4 (NADPH oxidase 4) | 3 | 0.0853 | 3.57 | 5.56
ZFP3 (ZFP3 zinc finger protein) | 1 | -0.828 | -2.86 | 2.11
ZFP3 (ZFP3 zinc finger protein) | 2 | 4.24 | 32.8 | 14.5
ZFP3 (ZFP3 zinc finger protein) | 3 | 2.23 | 18.7 | 10.1
SLIRP-OT1 (SLIRP overlapping transcript 1) | 1 | -0.675 | -1.78 | 2.73
SLIRP-OT1 (SLIRP overlapping transcript 1) | 2 | -0.801 | -2.67 | 2.67
SLIRP-OT1 (SLIRP overlapping transcript 1) | 3 | 0.575 | 7.01 | 5.76
H3P44 (H3 histone pseudogene 44) | 1 | -1.03 | -4.31 | 2.51
H3P44 (H3 histone pseudogene 44) | 2 | 0.288 | 5 | 5.45
H3P44 (H3 histone pseudogene 44) | 3 | -0.277 | 1.02 | 4.6
PYHIN1 (pyrin and HIN domain family member 1) | 1 | 2.85 | 23 | 11.5
PYHIN1 (pyrin and HIN domain family member 1) | 2 | 0.707 | 7.94 | 5.37
PYHIN1 (pyrin and HIN domain family member 1) | 3 | -0.826 | -2.84 | 2.08
SCHIP1 (schwannomin interacting protein 1) | 1 | 0.0901 | 3.6 | 5.23
SCHIP1 (schwannomin interacting protein 1) | 2 | 0.331 | 5.3 | 6.55
SCHIP1 (schwannomin interacting protein 1) | 3 | -1.02 | -4.17 | 1.94
L2HGDH (L-2-hydroxyglutarate dehydrogenase) | 1 | 0.646 | 7.51 | 7.57
L2HGDH (L-2-hydroxyglutarate dehydrogenase) | 2 | -1.07 | -4.54 | 3.54
L2HGDH (L-2-hydroxyglutarate dehydrogenase) | 3 | -0.473 | -0.363 | 4.06
DHX8 (DEAH-box helicase 8) | 1 | -1.28 | -6.04 | 2.02
DHX8 (DEAH-box helicase 8) | 2 | 1.27 | 11.9 | 9.35
DHX8 (DEAH-box helicase 8) | 3 | -0.181 | 1.69 | 5.57
TMEM9 (transmembrane protein 9) | 1 | -1.29 | -6.13 | 1.35
TMEM9 (transmembrane protein 9) | 2 | -0.484 | -0.441 | 2.98
TMEM9 (transmembrane protein 9) | 3 | 1.2 | 11.4 | 6.84
CENPW (centromere protein W) | 1 | -0.313 | 0.768 | 4.96
CENPW (centromere protein W) | 2 | 1.16 | 11.1 | 7.58
CENPW (centromere protein W) | 3 | -0.495 | -0.516 | 3.18
KRTAP2-4 (keratin associated protein 2-4) | 1 | -0.421 | 0.00881 | 3
KRTAP2-4 (keratin associated protein 2-4) | 2 | 0.321 | 5.22 | 4.58
KRTAP2-4 (keratin associated protein 2-4) | 3 | 3.75 | 29.3 | 16.5
IFT80 (intraflagellar transport 80) | 1 | 1.16 | 11.1 | 8.72
IFT80 (intraflagellar transport 80) | 2 | 0.144 | 3.98 | 6.36
IFT80 (intraflagellar transport 80) | 3 | -0.0214 | 2.82 | 3.92
ODAPH (odontogenesis associated phosphoprotein) | 1 | 0.328 | 5.28 | 5.6
ODAPH (odontogenesis associated phosphoprotein) | 2 | 0.0115 | 3.05 | 3.85
ODAPH (odontogenesis associated phosphoprotein) | 3 | -0.154 | 1.89 | 3.73
GJB6 (gap junction protein beta 6) | 1 | -0.0822 | 2.39 | 4.32
GJB6 (gap junction protein beta 6) | 2 | -0.878 | -3.21 | 4.56
GJB6 (gap junction protein beta 6) | 3 | -0.573 | -1.07 | 2.89
ULBP3 (UL16 binding protein 3) | 1 | 0.175 | 4.2 | 6.41
ULBP3 (UL16 binding protein 3) | 2 | -0.109 | 2.2 | 5.59
ULBP3 (UL16 binding protein 3) | 3 | -0.356 | 0.466 | 2.82
KIAA1143 | 1 | -0.343 | 0.552 | 4.56
KIAA1143 | 2 | -0.202 | 1.55 | 5.2
KIAA1143 | 3 | -0.238 | 1.29 | 3.44
WDR3 (WD repeat domain 3) | 1 | 2.47 | 20.3 | 13
WDR3 (WD repeat domain 3) | 2 | 1.97 | 16.8 | 11.1
WDR3 (WD repeat domain 3) | 3 | 0.801 | 8.6 | 6.39
B3GALT5 (beta-1,3-galactosyltransferase 5) | 1 | -0.0471 | 2.64 | 6.84
B3GALT5 (beta-1,3-galactosyltransferase 5) | 2 | -0.528 | -0.745 | 3.6
B3GALT5 (beta-1,3-galactosyltransferase 5) | 3 | 0.154 | 4.05 | 8.07
TTC17 (tetratricopeptide repeat domain 17) | 1 | 0.992 | 9.95 | 6.31
TTC17 (tetratricopeptide repeat domain 17) | 2 | -0.0467 | 2.64 | 5.54
TTC17 (tetratricopeptide repeat domain 17) | 3 | 0.995 | 9.97 | 8.27
